{"sequences": {"note": "Protein sequences, listed by entry. Tags and fused reporters are not part of them. Lines headed by an entry give the natural chain unless they say otherwise; changes in a name come on top.", "UniProt O00425": "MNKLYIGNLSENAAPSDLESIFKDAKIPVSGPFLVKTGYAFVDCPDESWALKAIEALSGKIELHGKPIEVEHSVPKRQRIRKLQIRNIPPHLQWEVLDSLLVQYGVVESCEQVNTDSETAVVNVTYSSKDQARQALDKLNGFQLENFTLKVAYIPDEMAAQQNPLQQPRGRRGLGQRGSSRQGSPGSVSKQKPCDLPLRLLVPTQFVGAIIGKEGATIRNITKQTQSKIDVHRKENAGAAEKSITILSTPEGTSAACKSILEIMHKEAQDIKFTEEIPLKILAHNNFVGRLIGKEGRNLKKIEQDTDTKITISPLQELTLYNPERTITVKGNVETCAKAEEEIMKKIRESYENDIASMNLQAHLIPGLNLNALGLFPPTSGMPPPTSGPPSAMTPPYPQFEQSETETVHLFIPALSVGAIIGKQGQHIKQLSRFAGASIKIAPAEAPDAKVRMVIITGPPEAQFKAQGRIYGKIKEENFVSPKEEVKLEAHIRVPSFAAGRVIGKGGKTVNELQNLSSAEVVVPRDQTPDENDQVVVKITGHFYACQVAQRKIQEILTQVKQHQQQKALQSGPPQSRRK", "UniProt Q14258": "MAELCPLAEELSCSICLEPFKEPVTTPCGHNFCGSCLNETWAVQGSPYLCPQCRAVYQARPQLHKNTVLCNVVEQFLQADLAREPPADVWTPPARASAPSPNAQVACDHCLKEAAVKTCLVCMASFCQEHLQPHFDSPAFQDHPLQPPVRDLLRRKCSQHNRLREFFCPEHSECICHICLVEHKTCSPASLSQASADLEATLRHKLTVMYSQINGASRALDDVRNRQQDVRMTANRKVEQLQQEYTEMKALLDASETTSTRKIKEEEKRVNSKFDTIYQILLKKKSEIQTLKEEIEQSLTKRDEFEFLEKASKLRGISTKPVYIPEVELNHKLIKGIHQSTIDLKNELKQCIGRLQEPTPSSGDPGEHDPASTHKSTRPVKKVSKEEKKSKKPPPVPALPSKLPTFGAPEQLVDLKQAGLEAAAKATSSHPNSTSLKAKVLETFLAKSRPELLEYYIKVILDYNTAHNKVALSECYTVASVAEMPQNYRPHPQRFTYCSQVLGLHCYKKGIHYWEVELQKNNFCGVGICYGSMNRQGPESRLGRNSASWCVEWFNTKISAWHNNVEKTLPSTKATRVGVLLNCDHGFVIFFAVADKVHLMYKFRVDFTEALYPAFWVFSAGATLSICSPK"}, "source": "paper PMC12817445", "key": {"[1]": {"biological_target": "Insulin-like growth factor-2 mRNA-binding protein 3 (IGF2BP3), Flag-tagged (UniProt O00425)", "experiment": "co-IP; exogenous interaction: HA-tagged TRIM25 and Flag-tagged IGF2BP3 expressed in HEK293T cells; IP lysis buffer, immunoblot"}, "[2]": {"biological_target": "Insulin-like growth factor-2 mRNA-binding protein 3 (IGF2BP3), Flag-tagged (UniProt O00425)", "experiment": "co-IP; HEK293T cells co-transfected with Flag-IGF2BP3 and His-TRIM25, with or without overexpression of the lncRNA LL22NC03; IgG as negative control"}, "[3]": {"biological_target": "IGF2BP3 wild-type (WT), as used beside the point mutants (UniProt O00425)", "experiment": "co-IP; TRIM25 with IGF2BP3 wild type or point mutants (D294R, G296R, I312R, T328R); Supplementary Fig. 4C; cells and tags not given"}, "IGF2BP3 G296R mutant": {"biological_target": "IGF2BP3 G296R mutant (UniProt O00425)", "experiment": "co-IP; TRIM25 with IGF2BP3 wild type or point mutants (D294R, G296R, I312R, T328R); Supplementary Fig. 4C; cells and tags not given"}, "IGF2BP3 T328R mutant": {"biological_target": "IGF2BP3 T328R mutant (UniProt O00425)", "experiment": "co-IP; TRIM25 with IGF2BP3 wild type or point mutants (D294R, G296R, I312R, T328R); Supplementary Fig. 4C; cells and tags not given"}, "IGF2BP3 I312R mutant": {"biological_target": "IGF2BP3 I312R mutant (UniProt O00425)", "experiment": "co-IP; TRIM25 with IGF2BP3 wild type or point mutants (D294R, G296R, I312R, T328R); Supplementary Fig. 4C; cells and tags not given"}, "[4]": {"biological_target": "IGF2BP3, endogenous (human (endogenous in HCC cells)) (UniProt O00425)", "experiment": "co-IP; endogenous proteins; lysate incubated overnight at 4 °C with anti-IGF2BP3 antibody, normal IgG as negative control, protein A-Sepharose beads, immunoblot"}}, "note": "These are yes or no findings as the source states them, for the method shown. In cells and extracts the contact can be indirect. Some binding calls cover weakened binding; strength is not graded here.", "data": [{"substance": "TRIM25, HA-tagged (from UniProt Q14258 1-630) (enzyme)", "values": [{"measurement": "binding", "setting": "[1]", "result": "binds"}]}, {"substance": "TRIM25, His-tagged (from UniProt Q14258 1-630) (enzyme)", "values": [{"measurement": "binding", "setting": "[2]", "result": "binds"}]}, {"substance": "TRIM25, as used in the co-IP with the IGF2BP3 point mutants (from UniProt Q14258 1-630) (enzyme)", "values": [{"measurement": "binding", "setting": "[3]", "result": "binds"}, {"measurement": "binding", "setting": "IGF2BP3 G296R mutant", "result": "binds"}, {"measurement": "binding", "setting": "IGF2BP3 T328R mutant", "result": "binds"}, {"measurement": "binding", "setting": "IGF2BP3 I312R mutant", "result": "binds"}]}, {"substance": "TRIM25, endogenous (from UniProt Q14258 1-630) (enzyme)", "values": [{"measurement": "binding", "setting": "[4]", "result": "binds"}]}]}
